The test system of this series is cells expressing MatB, NphT7, and PhaB. Put plainly: 19F-NMR analysis of E. coli cells expressing MatB, NphT7 and PhaB fed fluoromalonate. It is filed as cell-based. Particulars: fluoromalonate (42 mM) added to cell suspension; 19F NMR ERETIC; normalized to total suspension volume.

As for `O=C(O)CF` [Fluoroacetate, reference compound], the Extracellular concentration was determined as 1.1 mM and the Intracellular concentration was 0.2 mM.
`CC(O)C(F)C(=O)O` (stereo not drawn) [Fluorohydroxybutyrate] yielded an Extracellular concentration of 0.2 mM and an Intracellular concentration of 0.1 mM.
The compound Fluoromalonate had an Extracellular concentration of 36.9 mM and an Intracellular concentration of 0.9 mM.

The record behind these values is patent US9944967B2, “Methods for the site-selective introduction of halogen into natural products” (THE REGENTS OF THE UNIVERSITY OF CALIFORNIA, priority 2013, dated 2018).
